According to article PMC3551927, “Structural Basis of the γ-Lactone-Ring Formation in Ascorbic Acid Biosynthesis by the Senescence Marker Protein-30/Gluconolactonase” (PLoS ONE, 2013):
No constants are given. Whether binding was seen depends on the method and setting.

By UniProt entry, the sequences of proteins in these tests, tags left out.
UniProt Q15493: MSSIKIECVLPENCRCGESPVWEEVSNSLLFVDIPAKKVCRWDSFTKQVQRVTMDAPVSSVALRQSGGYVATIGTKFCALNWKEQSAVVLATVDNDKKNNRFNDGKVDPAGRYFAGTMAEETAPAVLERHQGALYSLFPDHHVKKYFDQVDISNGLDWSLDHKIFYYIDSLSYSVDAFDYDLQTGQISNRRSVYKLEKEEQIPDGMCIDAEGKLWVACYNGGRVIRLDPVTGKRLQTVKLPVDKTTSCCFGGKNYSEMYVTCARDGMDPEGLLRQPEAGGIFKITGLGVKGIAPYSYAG
UniProt Q64374: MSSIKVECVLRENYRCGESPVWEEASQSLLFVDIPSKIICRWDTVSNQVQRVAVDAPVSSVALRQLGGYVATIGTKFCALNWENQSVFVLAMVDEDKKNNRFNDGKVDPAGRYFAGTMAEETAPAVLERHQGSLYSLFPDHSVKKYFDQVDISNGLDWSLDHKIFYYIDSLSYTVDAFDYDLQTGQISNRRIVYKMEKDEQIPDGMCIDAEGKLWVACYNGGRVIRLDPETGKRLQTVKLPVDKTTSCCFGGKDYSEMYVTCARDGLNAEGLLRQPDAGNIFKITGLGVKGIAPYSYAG

Assays:
[1] = target: human senescence marker protein-30/gluconolactonase (SMP30/GNL) (human) (UniProt Q15493); experiment: SEC-MALS; low-angle laser light scattering combined with gel chromatography on a TSKgel SuperSW2000 column; elution buffer 50 mM HEPES pH 7.5, ionic strength 0.15 mol/L, flow rate 0.2 ml/min; standards ribonuclease A, egg albumin monomer, bovine albumin monomer; both purified
[2] = target: mouse senescence marker protein-30/gluconolactonase (SMP30/GNL) (mouse) (UniProt Q64374); experiment: as above

Substance	binding [1]	binding [2]
human senescence marker protein-30/gluconolactonase (SMP30/GNL) (from UniProt Q15493 1-299) (enzyme)	no binding	–
mouse senescence marker protein-30/gluconolactonase (SMP30/GNL) (from UniProt Q64374 1-299) (enzyme)	–	no binding
